{"source": "patent US20130053387A1", "about": "“DESAZADESFERROTHIOCIN AND DESAZADESFERROTHIOCIN POLYETHER ANALOGUES AS METAL CHELATION AGENTS” (FerroKin BioScience, Inc., priority 2010, published 2013)", "origin": "cited, not measured here", "key": {"[1]": {"conditions": "cited from earlier work; for ICE Ratio: ICE in primate to ICE in rodent; for Primate ICE [urine/bile]: mode of iron excretion"}, "[2]": {"conditions": "rats, 300 μmol/kg intraperitoneally immediately after uranyl acetate; mode of excretion; cited from earlier work"}}, "note": "Like-named read-outs stand apart in the source and are kept apart here."}
{"smiles": "COCCOCCOCCOCCOc1ccc(C2=N[C@@](C)(C(=O)O)CS2)c(O)c1", "note": "[Example C, (S)-2-(4-(2,5,8,11-tetraoxamidecan-13-yloxy)-2-hydroxyphenyl)-4-methyl-4,5-dihydrothiazole-4-carboxylic acid]", "values": [{"measurement": "ICE Ratio", "setting": "[1]", "result": 0.8}]}
{"smiles": "COCCOCCOc1ccc(C2=N[C@@](C)(C(=O)O)CS2)c(O)c1", "note": "[Example A, (S)-2-(2-hydroxy-4-(2-(2-methoxyethoxy)ethoxy)phenyl)-4-methyl-4,5-dihydrothiazole-4-carboxylic acid]", "values": [{"measurement": "Primate ICE [urine/bile]", "setting": "[1]; capsule", "result": "[93/7]"}, {"measurement": "Primate ICE [urine/bile]", "setting": "[1]; sodium salt", "result": "[83/17]"}]}
{"smiles": "COCCOCCOCCOc1ccc(C2=N[C@@](C)(C(=O)O)CS2)c(O)c1", "note": "[Example B, (S)-2-(2-hydroxy-4-(2-(2-(2-methoxyethoxy)ethoxy)ethoxy)phenyl)-4-methyl-4,5-dihydrothiazole-4-carboxylic acid]", "values": [{"measurement": "ICE Ratio", "setting": "[1]", "result": 4.6}, {"measurement": "Uranium Excretion [urine/bile]", "setting": "[2]", "result": "[35/65]"}]}
{"smiles": "COCCOCCOCCOc1cccc(C2=N[C@@](C)(C(=O)O)CS2)c1O", "note": "[Example E, (S)-2-(2-hydroxy-3-(2-(2-(2-methoxyethoxy)ethoxy)ethoxy)phenyl)-4-methyl-4,5-dihydrothiazole-4-carboxylic acid]", "values": [{"measurement": "ICE Ratio", "setting": "[1]", "result": 2.2}]}
{"smiles": "COCCOCCOCCOCCOc1cccc(C2=N[C@@](C)(C(=O)O)CS2)c1O", "note": "[Example F, (S)-2-(3-(2,5,8,11-tetraoxamidecan-13-yloxy)-2-hydroxyphenyl)-4-methyl-4,5-dihydrothiazole-4-carboxylic acid]", "values": [{"measurement": "ICE Ratio", "setting": "[1]", "result": 0.8}]}
